Data source: PubChem BioAssay AID1224830 (NIAID, 2016)
Here is an unselected part of about 18,000 reagents tested. About 2,900 of them (16%) were called active. 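Calls are made per well; low scores hint the gene aids the LPS response, high scores that it dampens it.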 Unmarked entries are inactive. Repeated entries: four replicate wells of each siRNA pool.

Aim: 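Host factors that control LPS-induced TNF expression in human macrophages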 (primary screen)
Cell system: human THP-1 monocytic leukaemia cells, TNF dual-luciferase reporter clone, PMA-differentiated to macrophage-like cells
Reagents: siRNA pool against human genes, 50 nM
Duration: LPS for 4 h, given about 3 days after siRNA transfection
Treatment: bacterial LPS (TLR4 ligand), 10 ng/ml
Read-out: 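Ratio of firefly to renilla light, scaled to the plate median and expressed as a robust z-score per replicate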
Reading the numbers: TNF reporter robust z-score: higher = stronger TNF reporter response to LPS
Call rule: 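a well is active when its z-score exceeds 2.8 or falls below -1.5; control wells carry no call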

LIN37 (GeneID 55957) [SID315457959] showed TNF reporter robust z-score -0.13.
LIN37 (GeneID 55957) [SID315457959] scored TNF reporter robust z-score -0.01.
Silencing of LIN37 (GeneID 55957) [SID315457959] resulted in: TNF reporter robust z-score 1.78.
Against LIN37 (GeneID 55957) [SID315457959] the deposit lists TNF reporter robust z-score -0.17.
PGM2L1 (GeneID 283209) [SID315463644] gave TNF reporter robust z-score -0.34.
With knock-down of PGM2L1 (GeneID 283209) [SID315463644], the screen gave TNF reporter robust z-score -0.11.
Silencing of PGM2L1 (GeneID 283209) [SID315463644] resulted in: TNF reporter robust z-score 0.1.
Knock-down of PGM2L1 (GeneID 283209) [SID315463644] gave: TNF reporter robust z-score -0.01.
DZIP1L (GeneID 199221) [SID315462995] showed TNF reporter robust z-score 1.26.
DZIP1L (GeneID 199221) [SID315462995] gave TNF reporter robust z-score 1.58.
For DZIP1L (GeneID 199221) [SID315462995] the deposit lists TNF reporter robust z-score 0.8.
Knock-down of DZIP1L (GeneID 199221) [SID315462995] gave: TNF reporter robust z-score 1.4.
After knock-down of ZNF579 (GeneID 163033) [SID315462767], the record shows TNF reporter robust z-score 0.25.
With knock-down of ZNF579 (GeneID 163033) [SID315462767], the screen gave TNF reporter robust z-score -0.23.
For ZNF579 (GeneID 163033) [SID315462767], the values are TNF reporter robust z-score -0.5.
After knock-down of ZNF579 (GeneID 163033) [SID315462767], the record shows TNF reporter robust z-score 0.28.
With knock-down of BTBD16 (GeneID 118663) [SID315461449] the results were TNF reporter robust z-score -0.44.
Against BTBD16 (GeneID 118663) [SID315461449], the entry reads TNF reporter robust z-score -0.27.
After knock-down of BTBD16 (GeneID 118663) [SID315461449], the record shows TNF reporter robust z-score 0.31.
Silencing of BTBD16 (GeneID 118663) [SID315461449] came out at: TNF reporter robust z-score -0.04.
For GAR1 (GeneID 54433) [SID315456999] the deposit lists TNF reporter robust z-score 0.25.
Silencing of GAR1 (GeneID 54433) [SID315456999] resulted in: TNF reporter robust z-score -0.24.
Knock-down of GAR1 (GeneID 54433) [SID315456999] resulted in: TNF reporter robust z-score 0.09.
Knock-down of GAR1 (GeneID 54433) [SID315456999] came out at: TNF reporter robust z-score 1.62.
Silencing of YIPF3 (GeneID 25844) [SID315455506] resulted in: TNF reporter robust z-score 1.35.
Against YIPF3 (GeneID 25844) [SID315455506] the deposit lists TNF reporter robust z-score 0.22.
After knock-down of YIPF3 (GeneID 25844) [SID315455506], the record shows TNF reporter robust z-score -1.16.
Against YIPF3 (GeneID 25844) [SID315455506], the values are TNF reporter robust z-score -0.74.
Knock-down of YIPF3 (GeneID 25844) [SID315455506] resulted in: TNF reporter robust z-score 0.34.
Silencing of YIPF3 (GeneID 25844) [SID315455506] resulted in: TNF reporter robust z-score 0.59.
After knock-down of YIPF3 (GeneID 25844) [SID315455506], the screen gave TNF reporter robust z-score -0.49.
Against YIPF3 (GeneID 25844) [SID315455506] the deposit lists TNF reporter robust z-score 2.39.
For OR10G3 (GeneID 26533) [SID315455813], the entry reads TNF reporter robust z-score 0.36.
OR10G3 (GeneID 26533) [SID315455813] showed TNF reporter robust z-score 0.67.
Depletion of OR10G3 (GeneID 26533) [SID315455813] resulted in: TNF reporter robust z-score 0.07.
OR10G3 (GeneID 26533) [SID315455813] showed TNF reporter robust z-score 1.08.
Knock-down of TGFA (GeneID 7039) [SID315451846] gave: TNF reporter robust z-score 0.28.
Knock-down of TGFA (GeneID 7039) [SID315451846] resulted in: TNF reporter robust z-score 0.22.
Knock-down of TGFA (GeneID 7039) [SID315451846] came out at: TNF reporter robust z-score 0.13.
For TGFA (GeneID 7039) [SID315451846] the deposit lists TNF reporter robust z-score 0.07.
With knock-down of ANGPTL7 (GeneID 10218) [SID315453916], the record shows TNF reporter robust z-score -0.23.
After knock-down of ANGPTL7 (GeneID 10218) [SID315453916], the screen gave TNF reporter robust z-score 1.79.
ANGPTL7 (GeneID 10218) [SID315453916] showed TNF reporter robust z-score 0.29.
After knock-down of ANGPTL7 (GeneID 10218) [SID315453916] the results were TNF reporter robust z-score 0.79.
Knock-down of DEFB119 (GeneID 245932) [SID315463382] gave: TNF reporter robust z-score -1.14.
For DEFB119 (GeneID 245932) [SID315463382], the entry reads TNF reporter robust z-score 0.25.
DEFB119 (GeneID 245932) [SID315463382] scored TNF reporter robust z-score -0.22.
Knock-down of DEFB119 (GeneID 245932) [SID315463382] gave: TNF reporter robust z-score -0.51.

A stretch of the results above, as a working copy:
ANGPTL7 (GeneID 10218) [SID315453916]: TNF reporter robust z-score = 1.79
ANGPTL7 (GeneID 10218) [SID315453916]: TNF reporter robust z-score = 0.29
ANGPTL7 (GeneID 10218) [SID315453916]: TNF reporter robust z-score = 0.79
DEFB119 (GeneID 245932) [SID315463382]: TNF reporter robust z-score = -1.14
DEFB119 (GeneID 245932) [SID315463382]: TNF reporter robust z-score = 0.25
DEFB119 (GeneID 245932) [SID315463382]: TNF reporter robust z-score = -0.22
DEFB119 (GeneID 245932) [SID315463382]: TNF reporter robust z-score = -0.51
